This experiment has as its target GFP–UAP56 (endogenously tagged eGFP–3C–DDX39B) (human (endogenous in K562)) (UniProt Q13838). The experiment is described as follows: affinity purification with mass spectrometry; GFP-Trap IP from benzonase-treated nuclear lysate of GFP–UAP56 K562 cells against WT K562; on-bead digest, MS.

Chains of the proteins cited; added tags and fusions are not shown.
UniProt Q9H814: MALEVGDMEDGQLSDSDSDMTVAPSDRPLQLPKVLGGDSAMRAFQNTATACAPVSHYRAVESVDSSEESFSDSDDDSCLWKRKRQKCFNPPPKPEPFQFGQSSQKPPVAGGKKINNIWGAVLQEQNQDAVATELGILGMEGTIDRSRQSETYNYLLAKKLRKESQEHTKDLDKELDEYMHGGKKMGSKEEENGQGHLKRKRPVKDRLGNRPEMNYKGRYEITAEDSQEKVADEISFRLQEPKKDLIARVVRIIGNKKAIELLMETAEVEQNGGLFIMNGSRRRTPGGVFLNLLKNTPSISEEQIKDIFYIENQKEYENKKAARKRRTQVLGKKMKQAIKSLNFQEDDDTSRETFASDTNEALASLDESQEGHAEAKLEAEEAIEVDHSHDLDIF

Results are given in words; binding and its absence hold for the method and conditions named. Binding seen in cells or lysates may run through a third protein. Here binding means that the protein was enriched with, or labelled near, the bait; the list need not be complete.

1 substance from publication PMC12823420 can be followed below.

For “endogenous PHAX (K562) (from UniProt Q9H814 1-394)”, the binding result is recorded as “binds”.
